These are yes or no findings as the source states them, for the method shown. In cells and extracts the contact can be indirect. Here binding means that the protein was enriched with, or labelled near, the bait; the list need not be complete.
Molecular target: MYCN protein (overexpressed) (UniProt P04198)
Assay: affinity purification with mass spectrometry; MYCN immunoprecipitated from SY5Y-MYCN cells (un-induced, 4 h, 24 h and 48 h MYCN induction) with Protein A/G PLUS-agarose beads conjugated to MYCN antibody or IgG; three biological and two technical replicates per condition

The chains behind the UniProt entries cited, without tags or fusion partners.
UniProt P04198: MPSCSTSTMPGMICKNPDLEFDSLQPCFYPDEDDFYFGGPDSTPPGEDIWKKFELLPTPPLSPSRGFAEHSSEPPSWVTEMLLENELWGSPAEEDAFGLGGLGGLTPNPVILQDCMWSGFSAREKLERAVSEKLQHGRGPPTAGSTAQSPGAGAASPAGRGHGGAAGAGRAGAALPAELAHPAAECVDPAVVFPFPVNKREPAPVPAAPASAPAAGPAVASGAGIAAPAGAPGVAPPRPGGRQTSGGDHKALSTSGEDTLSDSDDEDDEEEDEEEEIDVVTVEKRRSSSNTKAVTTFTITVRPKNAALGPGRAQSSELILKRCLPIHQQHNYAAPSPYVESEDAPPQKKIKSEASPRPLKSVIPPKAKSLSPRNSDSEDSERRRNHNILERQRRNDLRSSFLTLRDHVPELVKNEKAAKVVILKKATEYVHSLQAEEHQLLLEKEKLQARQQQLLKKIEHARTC
UniProt Q92769: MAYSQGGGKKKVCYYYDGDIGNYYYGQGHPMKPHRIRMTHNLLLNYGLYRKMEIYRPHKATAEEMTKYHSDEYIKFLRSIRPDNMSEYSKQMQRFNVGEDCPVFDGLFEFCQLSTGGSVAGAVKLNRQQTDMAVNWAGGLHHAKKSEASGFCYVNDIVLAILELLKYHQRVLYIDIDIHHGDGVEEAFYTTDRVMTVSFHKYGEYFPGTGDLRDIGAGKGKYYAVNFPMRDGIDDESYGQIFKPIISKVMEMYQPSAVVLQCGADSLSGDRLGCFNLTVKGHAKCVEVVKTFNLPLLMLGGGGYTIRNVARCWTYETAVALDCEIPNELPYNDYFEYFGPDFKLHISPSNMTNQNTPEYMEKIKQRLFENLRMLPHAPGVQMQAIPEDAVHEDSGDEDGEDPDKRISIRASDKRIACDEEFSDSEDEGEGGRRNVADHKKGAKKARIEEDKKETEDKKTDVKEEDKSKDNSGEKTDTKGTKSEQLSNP
UniProt P35222: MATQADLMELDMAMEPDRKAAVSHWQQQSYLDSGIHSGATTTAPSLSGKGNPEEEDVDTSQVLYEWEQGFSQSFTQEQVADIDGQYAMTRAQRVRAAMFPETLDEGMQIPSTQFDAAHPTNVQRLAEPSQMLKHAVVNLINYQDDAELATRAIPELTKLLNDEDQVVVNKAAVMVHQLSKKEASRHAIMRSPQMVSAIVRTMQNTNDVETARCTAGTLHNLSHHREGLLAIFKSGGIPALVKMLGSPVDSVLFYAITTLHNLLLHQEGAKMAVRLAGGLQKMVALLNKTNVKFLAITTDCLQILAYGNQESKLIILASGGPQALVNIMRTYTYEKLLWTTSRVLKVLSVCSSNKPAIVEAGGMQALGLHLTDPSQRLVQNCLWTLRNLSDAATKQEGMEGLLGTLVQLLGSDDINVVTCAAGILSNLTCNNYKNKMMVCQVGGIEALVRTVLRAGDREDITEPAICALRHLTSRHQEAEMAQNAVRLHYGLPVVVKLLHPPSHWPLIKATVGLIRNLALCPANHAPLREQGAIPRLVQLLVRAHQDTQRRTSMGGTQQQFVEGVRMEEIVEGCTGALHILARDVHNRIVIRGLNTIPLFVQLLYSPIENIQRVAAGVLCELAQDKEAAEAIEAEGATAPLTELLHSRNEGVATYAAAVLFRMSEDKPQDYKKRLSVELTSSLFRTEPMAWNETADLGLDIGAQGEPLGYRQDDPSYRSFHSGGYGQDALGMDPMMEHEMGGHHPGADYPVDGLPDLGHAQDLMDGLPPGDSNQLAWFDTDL

Row | Substance | binding
1 | HDAC2 (from UniProt Q92769 1-488) | binds
2 | β-catenin (CTNNB1) (from UniProt P35222 1-781) | binds

— PMC5312386
